Data taken from US20260183402A1, “NUTRITIONAL COMPOSITION” (priority 2010, published 2026).

Assay: Taste/bitterness of ketone bodies
Settings: human taste, in words

Row | Compound | taste
1 | CC(O)CC(=O)OCC(COC(=O)CC(C)O)OC(=O)CC(C)O (stereo not drawn) | bitterness
2 | butandiol triolide diester | bitter taste
3 | CCOC(=O)CC(C)O (stereo not drawn) [ethanol ester of beta-hydroxybutyrate] | low bitter or tasteless
